According to the supplement of paper PMC10849652:
Some of the results follow.

Protein sequences, listed by entry. Tags and fused reporters are not part of them. Lines headed by an entry give the natural chain unless they say otherwise; changes in a name come on top.
UniProt P00403, whole entry, looked up: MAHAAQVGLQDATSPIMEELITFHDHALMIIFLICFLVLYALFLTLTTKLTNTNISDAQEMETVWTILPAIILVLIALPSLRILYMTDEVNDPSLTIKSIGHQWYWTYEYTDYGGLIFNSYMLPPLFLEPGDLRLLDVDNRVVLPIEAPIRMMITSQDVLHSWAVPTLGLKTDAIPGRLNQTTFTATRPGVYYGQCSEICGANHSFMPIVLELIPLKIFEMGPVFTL
UniProt Q96E11: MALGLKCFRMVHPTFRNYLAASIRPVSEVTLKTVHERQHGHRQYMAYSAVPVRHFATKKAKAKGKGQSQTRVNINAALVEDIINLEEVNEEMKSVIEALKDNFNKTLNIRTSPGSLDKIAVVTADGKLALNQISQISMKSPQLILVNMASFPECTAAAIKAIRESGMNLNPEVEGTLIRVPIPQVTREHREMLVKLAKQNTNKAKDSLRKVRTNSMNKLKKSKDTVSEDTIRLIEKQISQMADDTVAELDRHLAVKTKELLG
UniProt P53602: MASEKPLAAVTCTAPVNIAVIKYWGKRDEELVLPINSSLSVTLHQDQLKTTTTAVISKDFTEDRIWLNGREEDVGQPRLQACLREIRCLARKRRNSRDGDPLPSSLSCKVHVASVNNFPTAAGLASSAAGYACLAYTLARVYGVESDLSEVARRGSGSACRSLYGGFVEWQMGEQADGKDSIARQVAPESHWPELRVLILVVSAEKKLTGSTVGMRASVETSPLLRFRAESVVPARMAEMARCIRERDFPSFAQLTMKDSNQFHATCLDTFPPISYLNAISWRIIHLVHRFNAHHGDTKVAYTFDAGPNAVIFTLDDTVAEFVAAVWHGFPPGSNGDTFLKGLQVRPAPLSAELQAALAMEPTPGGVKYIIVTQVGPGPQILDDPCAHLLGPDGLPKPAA
UniProt Q6UB35, whole entry, looked up: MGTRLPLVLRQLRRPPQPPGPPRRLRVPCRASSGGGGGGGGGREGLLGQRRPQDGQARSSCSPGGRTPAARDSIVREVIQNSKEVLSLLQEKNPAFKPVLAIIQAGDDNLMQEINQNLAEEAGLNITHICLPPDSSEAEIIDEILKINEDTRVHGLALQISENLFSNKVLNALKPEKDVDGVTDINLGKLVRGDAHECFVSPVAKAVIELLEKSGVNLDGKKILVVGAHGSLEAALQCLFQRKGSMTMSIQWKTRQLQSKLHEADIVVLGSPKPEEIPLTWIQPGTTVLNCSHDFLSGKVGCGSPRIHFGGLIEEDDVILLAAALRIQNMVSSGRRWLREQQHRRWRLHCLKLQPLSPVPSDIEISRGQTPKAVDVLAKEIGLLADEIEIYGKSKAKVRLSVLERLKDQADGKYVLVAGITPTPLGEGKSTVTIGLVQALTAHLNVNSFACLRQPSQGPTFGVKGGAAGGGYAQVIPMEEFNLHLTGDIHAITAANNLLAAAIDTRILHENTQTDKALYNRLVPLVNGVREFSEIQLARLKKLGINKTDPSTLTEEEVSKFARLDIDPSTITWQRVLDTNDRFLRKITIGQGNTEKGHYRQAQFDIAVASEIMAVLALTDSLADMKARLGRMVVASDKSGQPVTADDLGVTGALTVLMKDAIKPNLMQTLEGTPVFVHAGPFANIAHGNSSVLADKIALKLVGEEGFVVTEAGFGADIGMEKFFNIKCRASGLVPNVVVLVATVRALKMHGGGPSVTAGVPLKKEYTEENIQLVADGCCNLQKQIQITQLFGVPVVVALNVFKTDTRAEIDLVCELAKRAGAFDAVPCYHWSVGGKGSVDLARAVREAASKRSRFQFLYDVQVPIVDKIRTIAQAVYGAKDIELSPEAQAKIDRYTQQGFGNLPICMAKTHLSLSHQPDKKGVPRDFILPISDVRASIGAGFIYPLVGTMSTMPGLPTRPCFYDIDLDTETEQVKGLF
UniProt Q9Y217: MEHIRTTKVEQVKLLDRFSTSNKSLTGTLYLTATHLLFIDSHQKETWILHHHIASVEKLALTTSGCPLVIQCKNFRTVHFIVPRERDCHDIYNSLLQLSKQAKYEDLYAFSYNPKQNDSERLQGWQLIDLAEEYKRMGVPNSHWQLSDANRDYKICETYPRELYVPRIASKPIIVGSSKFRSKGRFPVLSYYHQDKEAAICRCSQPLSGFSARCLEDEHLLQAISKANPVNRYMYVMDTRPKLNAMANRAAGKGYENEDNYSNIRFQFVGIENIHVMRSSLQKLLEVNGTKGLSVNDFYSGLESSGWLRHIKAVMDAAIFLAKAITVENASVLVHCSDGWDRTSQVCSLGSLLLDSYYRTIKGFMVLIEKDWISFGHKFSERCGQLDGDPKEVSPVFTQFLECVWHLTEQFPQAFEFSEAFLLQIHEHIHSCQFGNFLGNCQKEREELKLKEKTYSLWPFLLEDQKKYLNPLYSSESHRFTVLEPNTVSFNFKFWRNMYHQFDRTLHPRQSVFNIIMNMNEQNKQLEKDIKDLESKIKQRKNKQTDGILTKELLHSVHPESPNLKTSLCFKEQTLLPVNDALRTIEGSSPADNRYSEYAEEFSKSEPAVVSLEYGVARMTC
UniProt Q9Y6C9: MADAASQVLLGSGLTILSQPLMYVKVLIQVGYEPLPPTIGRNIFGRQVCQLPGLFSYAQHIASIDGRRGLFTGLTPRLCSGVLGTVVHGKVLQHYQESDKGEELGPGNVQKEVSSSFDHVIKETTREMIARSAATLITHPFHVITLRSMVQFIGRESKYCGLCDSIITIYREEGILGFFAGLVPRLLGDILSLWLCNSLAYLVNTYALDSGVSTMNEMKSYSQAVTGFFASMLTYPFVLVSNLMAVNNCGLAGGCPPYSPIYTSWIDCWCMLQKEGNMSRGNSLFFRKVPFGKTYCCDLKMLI
UniProt P05976, whole entry, looked up: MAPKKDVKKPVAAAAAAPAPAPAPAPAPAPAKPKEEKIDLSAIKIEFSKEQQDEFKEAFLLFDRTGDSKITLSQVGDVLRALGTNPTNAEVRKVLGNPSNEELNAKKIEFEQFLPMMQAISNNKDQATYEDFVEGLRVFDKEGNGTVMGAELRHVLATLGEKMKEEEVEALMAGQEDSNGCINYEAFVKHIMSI
UniProt P20585: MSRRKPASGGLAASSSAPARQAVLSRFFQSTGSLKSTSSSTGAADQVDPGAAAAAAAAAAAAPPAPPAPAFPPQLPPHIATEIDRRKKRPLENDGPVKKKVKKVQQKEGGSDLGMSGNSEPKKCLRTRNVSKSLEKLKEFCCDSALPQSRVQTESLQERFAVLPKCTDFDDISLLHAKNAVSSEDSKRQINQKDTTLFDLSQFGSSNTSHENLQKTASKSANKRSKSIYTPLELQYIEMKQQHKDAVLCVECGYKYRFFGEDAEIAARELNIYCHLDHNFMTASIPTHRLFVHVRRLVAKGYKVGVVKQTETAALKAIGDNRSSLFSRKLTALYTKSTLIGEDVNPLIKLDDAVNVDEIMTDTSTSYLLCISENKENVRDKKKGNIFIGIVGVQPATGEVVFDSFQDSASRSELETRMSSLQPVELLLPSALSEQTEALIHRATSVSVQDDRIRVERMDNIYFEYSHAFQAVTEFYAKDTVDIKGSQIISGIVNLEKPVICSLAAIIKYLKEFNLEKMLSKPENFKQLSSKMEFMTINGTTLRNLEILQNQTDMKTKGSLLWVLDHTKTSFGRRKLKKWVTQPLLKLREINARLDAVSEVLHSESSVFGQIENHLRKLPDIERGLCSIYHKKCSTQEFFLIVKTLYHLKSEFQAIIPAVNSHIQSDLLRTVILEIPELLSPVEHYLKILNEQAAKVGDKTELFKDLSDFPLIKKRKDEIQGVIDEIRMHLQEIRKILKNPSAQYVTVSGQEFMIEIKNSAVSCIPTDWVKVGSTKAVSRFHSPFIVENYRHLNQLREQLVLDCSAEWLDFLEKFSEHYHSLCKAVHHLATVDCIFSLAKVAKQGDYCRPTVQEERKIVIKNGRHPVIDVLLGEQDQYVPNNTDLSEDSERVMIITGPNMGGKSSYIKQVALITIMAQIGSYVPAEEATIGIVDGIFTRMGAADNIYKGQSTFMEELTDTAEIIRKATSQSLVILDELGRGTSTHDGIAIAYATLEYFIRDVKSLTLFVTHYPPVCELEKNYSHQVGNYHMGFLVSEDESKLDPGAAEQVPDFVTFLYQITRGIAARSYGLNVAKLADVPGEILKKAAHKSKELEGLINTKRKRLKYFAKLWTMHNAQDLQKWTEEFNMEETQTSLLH
UniProt P35749, whole entry, looked up: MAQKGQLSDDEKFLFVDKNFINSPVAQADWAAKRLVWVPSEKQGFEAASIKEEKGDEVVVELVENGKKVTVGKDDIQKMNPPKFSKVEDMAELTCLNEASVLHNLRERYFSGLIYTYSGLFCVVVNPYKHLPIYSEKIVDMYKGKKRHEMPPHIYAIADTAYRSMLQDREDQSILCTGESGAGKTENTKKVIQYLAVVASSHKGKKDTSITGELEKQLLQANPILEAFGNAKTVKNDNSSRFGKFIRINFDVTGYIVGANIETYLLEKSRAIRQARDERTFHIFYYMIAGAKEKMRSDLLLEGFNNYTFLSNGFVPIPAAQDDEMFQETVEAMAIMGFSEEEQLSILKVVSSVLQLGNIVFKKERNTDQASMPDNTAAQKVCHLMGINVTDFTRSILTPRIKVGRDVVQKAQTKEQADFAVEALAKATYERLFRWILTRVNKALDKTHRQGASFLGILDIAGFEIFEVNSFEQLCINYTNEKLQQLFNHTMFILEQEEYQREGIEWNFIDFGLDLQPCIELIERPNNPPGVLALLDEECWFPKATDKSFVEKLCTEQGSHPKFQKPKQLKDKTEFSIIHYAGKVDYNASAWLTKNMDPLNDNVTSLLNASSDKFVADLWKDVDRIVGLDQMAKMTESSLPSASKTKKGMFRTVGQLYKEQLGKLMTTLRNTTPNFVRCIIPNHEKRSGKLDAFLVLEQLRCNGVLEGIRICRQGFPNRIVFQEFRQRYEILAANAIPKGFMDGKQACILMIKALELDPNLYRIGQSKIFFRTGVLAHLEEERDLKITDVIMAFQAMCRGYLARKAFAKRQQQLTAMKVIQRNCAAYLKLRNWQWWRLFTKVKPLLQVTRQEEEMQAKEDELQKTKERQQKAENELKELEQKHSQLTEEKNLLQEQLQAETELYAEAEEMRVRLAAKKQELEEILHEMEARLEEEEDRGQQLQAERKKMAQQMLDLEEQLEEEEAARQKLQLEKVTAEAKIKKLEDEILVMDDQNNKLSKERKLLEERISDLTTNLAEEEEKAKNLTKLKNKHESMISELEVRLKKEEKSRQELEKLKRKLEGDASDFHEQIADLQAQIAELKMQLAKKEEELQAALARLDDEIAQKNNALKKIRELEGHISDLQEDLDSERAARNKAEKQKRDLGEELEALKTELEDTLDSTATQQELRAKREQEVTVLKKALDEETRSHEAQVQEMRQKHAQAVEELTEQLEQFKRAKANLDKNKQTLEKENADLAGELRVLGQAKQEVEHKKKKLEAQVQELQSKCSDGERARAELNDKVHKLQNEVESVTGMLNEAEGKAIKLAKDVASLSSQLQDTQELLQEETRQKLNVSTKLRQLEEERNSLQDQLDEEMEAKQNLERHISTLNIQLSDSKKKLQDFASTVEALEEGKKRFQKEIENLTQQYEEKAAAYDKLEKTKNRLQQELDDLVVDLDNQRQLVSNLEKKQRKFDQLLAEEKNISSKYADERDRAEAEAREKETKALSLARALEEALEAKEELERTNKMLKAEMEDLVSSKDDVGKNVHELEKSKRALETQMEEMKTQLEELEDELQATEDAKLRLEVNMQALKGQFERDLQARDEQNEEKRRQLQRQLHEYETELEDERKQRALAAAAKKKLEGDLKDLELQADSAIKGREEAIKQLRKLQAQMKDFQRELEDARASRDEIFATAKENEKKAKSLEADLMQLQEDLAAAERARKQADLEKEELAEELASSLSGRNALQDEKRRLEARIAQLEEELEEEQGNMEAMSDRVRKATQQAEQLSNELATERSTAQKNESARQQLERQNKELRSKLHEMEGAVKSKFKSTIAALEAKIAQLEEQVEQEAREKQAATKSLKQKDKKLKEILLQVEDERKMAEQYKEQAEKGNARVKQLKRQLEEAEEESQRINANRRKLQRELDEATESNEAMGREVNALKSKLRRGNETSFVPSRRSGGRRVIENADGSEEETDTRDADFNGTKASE
UniProt O43347: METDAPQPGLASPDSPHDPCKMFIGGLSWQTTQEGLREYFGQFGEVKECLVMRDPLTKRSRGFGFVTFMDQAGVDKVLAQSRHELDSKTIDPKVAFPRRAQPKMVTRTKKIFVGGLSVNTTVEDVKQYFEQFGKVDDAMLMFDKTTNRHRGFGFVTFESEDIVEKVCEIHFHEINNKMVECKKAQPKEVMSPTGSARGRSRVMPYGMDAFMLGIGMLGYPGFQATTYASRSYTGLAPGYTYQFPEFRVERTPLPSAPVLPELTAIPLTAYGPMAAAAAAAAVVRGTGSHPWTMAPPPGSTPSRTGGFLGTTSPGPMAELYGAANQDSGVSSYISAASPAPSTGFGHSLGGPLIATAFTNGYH

Assays:
Assay in all cases: log2 fold change, soluble protein after heating vs DMSO (PISA); higher = thermal stabilisation; K562 cells, 10 uM, 30 min; active = over 0.2 and 3.5 SD of the protein, either way, in both replicates (recomputed)
bafetinib = compound: Cc1ccc(NC(=O)c2ccc(CN3CC[C@H](N(C)C)C3)c(C(F)(F)F)c2)cc1Nc1nccc(-c2cncnc2)n1 [bafetinib]
Procedure, shortened: (§1)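 Values are thermal stability changes relative to control samples and are taken from duplicates. They are stated as log2 fold changes. Before quantification by TMTpro 16plex LC-MS/MS with equalised channel sums, K562 cells at 2×10^6 cells/mL were treated with 10 μM compound for 30 min, heated in aliquots for 3 min across 48°C-58°C, pooled, extracted in PBS with 0.5% NP-40 at 4°C, and centrifuged at 21,000xg for 90 min to give the soluble supernatant.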

[1] = compound: Cc1cccc(CC(=O)N2CCc3c2ccc(-c2cn(C)c4ncnc(N)c24)c3F)n1
Procedure, shortened: as §1

nilotinib = compound: Cc1cn(-c2cc(NC(=O)c3ccc(C)c(Nc4nccc(-c5cccnc5)n4)c3)cc(C(F)(F)F)c2)cn1 [nilotinib]
Procedure, shortened: as §1

[2] = compound: Cc1nc(Nc2n[nH]c3c2CN(C(=O)N[C@H](CN(C)C)c2ccccc2)C3(C)C)c2sccc2n1
Procedure, shortened: as §1

dasatinib = compound: Cc1nc(Nc2ncc(C(=O)Nc3c(C)cccc3Cl)s2)cc(N2CCN(CCO)CC2)n1 [dasatinib]
Procedure, shortened: as §1

[3] = compound: Cc1ncc(-c2ccnc(Nc3ccc(S(C)(=O)=O)cc3)n2)n1C(C)C
Procedure, shortened: as §1

[4] = compound: Cn1cc(-c2ccc3c(c2)CCN3C(=O)Cc2cccc(C(F)(F)F)c2)c2c(N)ncnc21
Procedure, shortened: as §1

[5] = compound: Cn1cc(-c2ccc3nnc(C(F)(F)c4ccc5ncccc5c4)n3n2)cn1
Procedure, shortened: as §1

tipifarnib = compound: Cn1cncc1[C@@](N)(c1ccc(Cl)cc1)c1ccc2c(c1)c(-c1cccc(Cl)c1)cc(=O)n2C [tipifarnib]
Procedure, shortened: as §1

mubritinib = compound: FC(F)(F)c1ccc(/C=C/c2nc(COc3ccc(CCCCn4ccnn4)cc3)co2)cc1 [mubritinib]
Procedure, shortened: as §1

[6] = compound: NC(=O)Nc1cc(-c2cccc(F)c2)sc1C(=O)N[C@H]1CCCNC1
Procedure, shortened: as §1

[7] = compound: NC(=O)c1cnc(N[C@@H]2CCCC[C@@H]2N)nc1Nc1cccc(-n2nccn2)c1
Procedure, shortened: as §1

[8] = compound: NC1(c2ccc(-c3nc4ccn5c(=O)[nH]nc5c4cc3-c3ccccc3)cc2)CCC1
Procedure, shortened: as §1

[9] = compound: NCC(=O)Nc1ccc(-n2nc(C(F)(F)F)cc2-c2ccc3c(ccc4ccccc43)c2)cc1
Procedure, shortened: as §1

entinostat = compound: Nc1ccccc1NC(=O)c1ccc(CNC(=O)OCc2cccnc2)cc1 [entinostat]
Procedure, shortened: as §1

vorinostat = compound: O=C(CCCCCCC(=O)Nc1ccccc1)NO [vorinostat]
Procedure, shortened: as §1

citarinostat = compound: O=C(CCCCCCNC(=O)c1cnc(N(c2ccccc2)c2ccccc2Cl)nc1)NO [citarinostat]
Procedure, shortened: as §1

silmitasertib = compound: O=C(O)c1ccc2c(c1)nc(Nc1cccc(Cl)c1)c1ccncc12 [silmitasertib]
Procedure, shortened: as §1

[10] = compound: O=C1NC(=O)C(c2cnc3ccccn23)=C1c1cn2c3c(cc(F)cc13)CN(C(=O)N1CCCCC1)CC2
Procedure, shortened: as §1

[11] = compound: c1cc(OCCN2CCCCC2)cc(-c2n[nH]c3ccc(-c4nnc[nH]4)cc23)c1
Procedure, shortened: as §1

Target	log2 fold change (bafetinib)	log2 fold change [1]	log2 fold change (nilotinib)	log2 fold change [2]	log2 fold change (dasatinib)	log2 fold change [3]	log2 fold change [4]	log2 fold change [5]	log2 fold change (tipifarnib)	log2 fold change (mubritinib)	log2 fold change [6]	log2 fold change [7]	log2 fold change [8]	log2 fold change [9]	log2 fold change (entinostat)	log2 fold change (vorinostat)	log2 fold change (citarinostat)	log2 fold change (silmitasertib)	log2 fold change [10]	log2 fold change [11]
MT-CO2 (UniProt P00403)	inactive: -0.047	inactive: -0.022	inactive: 0.013	inactive: -0.018	inactive: -0.06	inactive: -0.028	inactive: 0.016	inactive: -0.004	inactive: 0.127	inactive: 0.092	inactive: -0.002	inactive: 0.121	inactive: -0.044	inactive: 0.056	inactive: -0.028	inactive: 0.026	inactive: 0.042	inactive: -0.035	inactive: 0.005	inactive: -0.048
MRRF (UniProt Q96E11)	inactive: 0.046	inactive: 0.051	inactive: -0.027	inactive: -0.035	inactive: -0.027	inactive: 0.052	inactive: 0.042	inactive: 0.02	inactive: -0.015	inactive: -0.012	inactive: -0.026	inactive: -0.024	inactive: -0.004	inactive: 0.029	inactive: 0.024	inactive: -0.043	inactive: 0.07	inactive: 0.036	inactive: -0.067	inactive: 0.019
MVD (UniProt P53602)	inactive: -0.027	inactive: 0.03	inactive: 0.03	inactive: -0.037	inactive: 0.094	inactive: 0	inactive: 0.083	inactive: -0.024	inactive: -0.059	inactive: 0.017	inactive: -0.007	inactive: -0.017	inactive: -0.06	inactive: -0.004	inactive: -0.017	inactive: -0.006	inactive: 0.02	inactive: -0.077	inactive: -0.061	inactive: 0
MTHFD1L (UniProt Q6UB35)	inactive: -0.004	inactive: 0.025	inactive: -0.014	inactive: -0.012	inactive: -0.073	inactive: -0.013	inactive: 0.064	inactive: 0.028	inactive: -0.032	inactive: 0.064	inactive: -0.008	inactive: -0.015	inactive: -0.057	inactive: -0.046	inactive: -0.021	inactive: 0.01	inactive: 0.053	inactive: -0.044	inactive: -0.085	inactive: -0.006
MRPS5 (UniProt P82675)	inactive: 0.153	inactive: 0.159	inactive: -0.287	inactive: 0.118	inactive: -0.073	inactive: 0.067	inactive: 0.039	inactive: 0.087	inactive: -0.13	inactive: 0.22	inactive: 0.009	inactive: 0.034	inactive: -0.057	inactive: 0.013	inactive: 0	inactive: 0.125	inactive: 0.023	inactive: -0.043	inactive: -0.039	inactive: -0.018
MTMR6 (UniProt Q9Y217)	inactive: -0.116	inactive: 0.035	inactive: -0.029	inactive: 0.035	inactive: -0.138	inactive: 0.102	inactive: 0.036	inactive: -0.099	inactive: 0.035	inactive: 0.006	inactive: -0.064	inactive: 0.034	inactive: -0.076	inactive: 0.027	inactive: 0.006	inactive: 0.101	inactive: 0.085	inactive: 0.126	inactive: 0.059	inactive: 0.051
MTCH2 (UniProt Q9Y6C9)	inactive: -0.055	inactive: 0.04	inactive: -0.031	inactive: 0.017	inactive: 0.065	inactive: -0.045	inactive: 0.041	inactive: 0.027	inactive: 0.037	inactive: 0.01	inactive: -0.026	inactive: -0.076	inactive: -0.016	inactive: -0.065	inactive: -0.026	inactive: -0.012	inactive: 0.018	inactive: 0.012	inactive: -0.082	inactive: -0.021
MSI2 (UniProt Q96DH6)	inactive: -0.072	inactive: 0.046	inactive: 0.002	inactive: -0.005	inactive: -0.018	inactive: 0.061	inactive: -0.154	inactive: 0.02	inactive: 0.057	inactive: -0.063	inactive: 0.012	inactive: -0.003	inactive: 0.063	inactive: 0.01	inactive: 0.042	inactive: 0.002	inactive: 0.037	inactive: 0.066	inactive: 0.128	inactive: -0.134
MYL1 (UniProt P05976)	inactive: -0.368																			
MRPL9 (UniProt Q9BYD2)	inactive: 0.259	inactive: 0.021	inactive: -0.044	inactive: 0.104	inactive: 0.006	inactive: 0.007	inactive: -0.098	inactive: -0.068	inactive: 0.081	inactive: 0.077	inactive: 0.019	inactive: 0.023	inactive: -0.06	inactive: 0.083	inactive: 0.046	inactive: 0.008	inactive: 0.017	inactive: -0.031	inactive: 0.092	inactive: -0.049
MSH3 (UniProt P20585)	inactive: -0.012	inactive: 0.051	inactive: -0.046	inactive: -0.014	inactive: -0.038	inactive: 0.052	inactive: -0.032	inactive: 0.009	inactive: -0.029	inactive: 0.167	inactive: -0.175	inactive: -0.001	inactive: -0.126	inactive: -0.007	inactive: -0.032	inactive: -0.017	inactive: 0.031	inactive: 0.034	inactive: -0.069	inactive: -0.019
MTR (UniProt Q99707)	inactive: -0.003	inactive: -0.002	inactive: -0.046	inactive: -0.107	inactive: -0.025	inactive: 0.043	inactive: -0.036	inactive: -0.024	inactive: -0.029	inactive: -0.064	inactive: -0.015	inactive: -0.068	inactive: -0.087	inactive: -0.032	inactive: 0.08	inactive: 0.076	inactive: -0.004	inactive: 0.065	inactive: 0.099	inactive: -0.029
MRPS18B (UniProt Q9Y676)	inactive: 0.125	inactive: 0.055	inactive: -0.154	inactive: 0.098	inactive: -0.024	inactive: -0.342	inactive: 0.005	inactive: 0.081	inactive: -0.059	inactive: 0.172	inactive: 0.133	inactive: 0	inactive: 0.021	inactive: 0.105	inactive: -0.047	inactive: 0.08	inactive: -0.03	inactive: -0.061	inactive: -0.03	inactive: -0.026
MYH11 isoform 2 (UniProt P35749)	inactive: -0.055	inactive: -0.016	inactive: 0.05	inactive: 0.014	inactive: -0.027	inactive: -0.025	inactive: 0.039	inactive: -0.001	inactive: 0.005	inactive: 0.007	inactive: 0.056	inactive: 0.018	inactive: -0.017	inactive: 0.046	inactive: 0.015	inactive: 0.121	inactive: 0.027	inactive: -0.003	inactive: -0.009	inactive: -0.034
MTOR (UniProt P42345)	inactive: -0.018	inactive: 0.014	inactive: -0.158	inactive: 0.068	inactive: -0.166	inactive: -0.069	inactive: 0.004	inactive: 0.037	inactive: -0.12	inactive: 0.068	inactive: -0.016	inactive: -0.102	active: -0.315	inactive: -0.111	inactive: 0.042	inactive: 0.049	inactive: 0.035	inactive: 0.102	inactive: -0.065	inactive: -0.004
MTMR12 (UniProt Q9C0I1)	inactive: -0.031	inactive: -0.088	inactive: 0.011	inactive: -0.015	inactive: -0.015	inactive: -0.008	inactive: 0.015	inactive: 0.06	inactive: 0.029	inactive: 0.002	inactive: -0.001	inactive: -0.025	inactive: -0.016	inactive: -0.032	inactive: -0.022	inactive: -0.016	inactive: 0.013	inactive: 0.007	inactive: -0.006	inactive: -0.007
MSI1 (UniProt O43347)	inactive: -0.017	inactive: 0.043	inactive: -0.076	inactive: 0.007	inactive: 0.068	inactive: 0.124	inactive: -0.187	inactive: -0.062	inactive: 0.028	inactive: -0.076	inactive: -0.004	inactive: 0.028	inactive: 0.013	inactive: -0.005	inactive: 0.021	inactive: 0.103	inactive: -0.036	inactive: 0.058	inactive: 0.186	inactive: -0.132
